One experiment has as its target T1, CD53-mCitrine (human) (UniProt P19397).
T1 sequence: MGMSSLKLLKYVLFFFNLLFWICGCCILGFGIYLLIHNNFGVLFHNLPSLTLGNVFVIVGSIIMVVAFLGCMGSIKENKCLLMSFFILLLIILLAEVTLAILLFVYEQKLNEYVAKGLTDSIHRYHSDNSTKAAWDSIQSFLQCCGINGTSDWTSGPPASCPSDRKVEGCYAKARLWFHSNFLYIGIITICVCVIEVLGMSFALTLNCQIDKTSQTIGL
In words: FRET or BRET. Background: In BRET a luciferase serves as donor, and the signal depends on an acceptor being close.

Sequences of proteins named here, by UniProt entry; tags and fusion partners are left off. A change or cut given only in a name is not applied to a line headed by its entry. A line that says so, or that is headed by a name, gives the form on record, which may keep a tag or linker.
UniProt Q04759: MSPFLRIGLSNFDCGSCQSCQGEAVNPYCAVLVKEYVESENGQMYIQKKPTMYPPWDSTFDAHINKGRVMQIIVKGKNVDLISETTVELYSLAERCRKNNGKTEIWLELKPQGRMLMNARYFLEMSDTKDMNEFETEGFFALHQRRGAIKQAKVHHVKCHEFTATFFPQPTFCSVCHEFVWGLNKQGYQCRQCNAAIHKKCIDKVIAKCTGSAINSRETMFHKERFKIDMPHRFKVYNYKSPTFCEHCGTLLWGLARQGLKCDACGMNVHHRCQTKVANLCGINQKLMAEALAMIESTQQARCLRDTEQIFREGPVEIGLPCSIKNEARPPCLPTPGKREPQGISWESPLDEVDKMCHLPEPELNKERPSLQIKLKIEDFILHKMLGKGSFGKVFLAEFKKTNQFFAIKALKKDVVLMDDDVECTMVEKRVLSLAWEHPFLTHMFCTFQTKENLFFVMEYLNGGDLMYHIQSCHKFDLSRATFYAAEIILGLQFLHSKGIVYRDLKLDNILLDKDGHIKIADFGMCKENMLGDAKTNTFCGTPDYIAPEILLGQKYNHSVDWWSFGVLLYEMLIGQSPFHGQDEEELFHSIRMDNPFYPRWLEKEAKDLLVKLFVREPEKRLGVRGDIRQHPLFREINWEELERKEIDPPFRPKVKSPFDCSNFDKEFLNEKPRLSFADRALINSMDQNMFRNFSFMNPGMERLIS
CD45RO (P08575-4, form named): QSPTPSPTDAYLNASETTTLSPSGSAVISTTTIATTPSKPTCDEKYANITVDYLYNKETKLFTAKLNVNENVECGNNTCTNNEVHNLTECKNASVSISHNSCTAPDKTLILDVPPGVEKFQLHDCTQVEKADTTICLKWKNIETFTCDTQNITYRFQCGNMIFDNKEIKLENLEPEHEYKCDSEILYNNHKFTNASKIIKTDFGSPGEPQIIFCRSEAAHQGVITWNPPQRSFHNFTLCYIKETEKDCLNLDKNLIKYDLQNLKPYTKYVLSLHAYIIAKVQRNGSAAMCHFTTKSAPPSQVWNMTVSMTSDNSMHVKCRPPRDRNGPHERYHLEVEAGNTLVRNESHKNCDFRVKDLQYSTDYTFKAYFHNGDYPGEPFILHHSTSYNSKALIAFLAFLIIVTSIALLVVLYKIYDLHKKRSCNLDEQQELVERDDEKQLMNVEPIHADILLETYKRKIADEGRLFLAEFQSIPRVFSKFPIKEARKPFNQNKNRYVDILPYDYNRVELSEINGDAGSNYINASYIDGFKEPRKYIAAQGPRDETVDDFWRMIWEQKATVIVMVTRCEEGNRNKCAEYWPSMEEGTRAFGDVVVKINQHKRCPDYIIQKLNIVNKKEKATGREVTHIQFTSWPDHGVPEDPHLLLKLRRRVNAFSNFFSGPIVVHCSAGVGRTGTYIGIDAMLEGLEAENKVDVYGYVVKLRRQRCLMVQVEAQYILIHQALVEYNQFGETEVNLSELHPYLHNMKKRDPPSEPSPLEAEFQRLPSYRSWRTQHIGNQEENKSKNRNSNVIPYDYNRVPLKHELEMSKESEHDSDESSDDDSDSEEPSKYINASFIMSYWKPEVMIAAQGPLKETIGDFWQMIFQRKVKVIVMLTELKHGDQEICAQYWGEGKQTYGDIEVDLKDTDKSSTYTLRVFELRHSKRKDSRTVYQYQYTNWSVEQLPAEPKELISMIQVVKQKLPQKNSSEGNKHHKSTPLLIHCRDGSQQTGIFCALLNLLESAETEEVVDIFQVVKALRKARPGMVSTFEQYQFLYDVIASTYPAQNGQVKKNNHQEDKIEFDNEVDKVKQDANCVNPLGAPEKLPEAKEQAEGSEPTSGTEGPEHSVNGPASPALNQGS

Experiment [1] deals with T2, tetraspanin CD53 (human (endogenous in Raji and CEM)) (UniProt P19397).
T2 sequence: T1 sequence
In words: co-IP.

These are yes or no findings as the source states them, for the method shown. Binding seen in cells or lysates may run through a third protein. Some results given as binding are weak or reduced against the parent protein; the word gives no strength.

Regarding “mCherry-PKCθ (from UniProt Q04759 1-706)”, in the experiment with CD53-mCitrine (human), the binding result is on record as “no binding”.
With CD45RO (from UniProt P08575-4 26-1145), the binding result in experiment [1] is on record as “binds”.
